From patent US20110178027A1
Results are given in words; binding and its absence hold for the method and conditions named. A result given as binding can be weak or reduced; the word gives no strength.

Protein sequences, listed by entry. Tags and fused reporters are not part of them. Lines headed by an entry give the natural chain unless they say otherwise; changes in a name come on top.
UniProt Q6UW60: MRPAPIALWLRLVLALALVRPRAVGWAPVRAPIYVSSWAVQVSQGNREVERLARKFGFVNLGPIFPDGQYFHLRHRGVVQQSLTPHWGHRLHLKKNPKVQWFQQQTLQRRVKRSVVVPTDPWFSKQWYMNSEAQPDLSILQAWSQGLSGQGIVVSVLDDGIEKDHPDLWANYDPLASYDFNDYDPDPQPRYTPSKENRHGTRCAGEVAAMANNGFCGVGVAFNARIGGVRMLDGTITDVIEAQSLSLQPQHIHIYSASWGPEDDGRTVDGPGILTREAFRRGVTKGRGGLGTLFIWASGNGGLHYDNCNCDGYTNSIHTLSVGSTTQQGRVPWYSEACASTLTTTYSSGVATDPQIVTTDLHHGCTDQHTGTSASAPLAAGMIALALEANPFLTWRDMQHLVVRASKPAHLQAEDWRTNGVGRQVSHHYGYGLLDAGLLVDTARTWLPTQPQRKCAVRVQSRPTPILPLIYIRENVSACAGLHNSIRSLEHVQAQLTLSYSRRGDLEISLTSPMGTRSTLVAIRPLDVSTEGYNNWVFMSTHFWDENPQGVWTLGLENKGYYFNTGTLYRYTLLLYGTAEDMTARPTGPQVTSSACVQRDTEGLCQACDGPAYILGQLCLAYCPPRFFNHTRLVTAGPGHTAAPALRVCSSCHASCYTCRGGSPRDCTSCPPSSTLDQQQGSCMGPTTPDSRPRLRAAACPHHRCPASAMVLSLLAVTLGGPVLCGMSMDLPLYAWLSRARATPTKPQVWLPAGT

Biological target: PC4 (UniProt Q6UW60)
Experiment: enzyme inhibition assay, fluorogenic substrate PyrRTKR-MCA

Binder | binding
LLLLRVKR (C-terminal amide) [LLLLRVKR-NH2] | binds
LLLLLLRVKR (C-terminal amide) […-NH2] | binds
